Assay results reported in the supplement of paper PMC10849652.
The list shows a part of the results.

Amino acid sequences for entries named in this document (tags omitted). A change or cut given only in a name is not applied to a line headed by its entry.
UniProt O43148, whole entry, looked up: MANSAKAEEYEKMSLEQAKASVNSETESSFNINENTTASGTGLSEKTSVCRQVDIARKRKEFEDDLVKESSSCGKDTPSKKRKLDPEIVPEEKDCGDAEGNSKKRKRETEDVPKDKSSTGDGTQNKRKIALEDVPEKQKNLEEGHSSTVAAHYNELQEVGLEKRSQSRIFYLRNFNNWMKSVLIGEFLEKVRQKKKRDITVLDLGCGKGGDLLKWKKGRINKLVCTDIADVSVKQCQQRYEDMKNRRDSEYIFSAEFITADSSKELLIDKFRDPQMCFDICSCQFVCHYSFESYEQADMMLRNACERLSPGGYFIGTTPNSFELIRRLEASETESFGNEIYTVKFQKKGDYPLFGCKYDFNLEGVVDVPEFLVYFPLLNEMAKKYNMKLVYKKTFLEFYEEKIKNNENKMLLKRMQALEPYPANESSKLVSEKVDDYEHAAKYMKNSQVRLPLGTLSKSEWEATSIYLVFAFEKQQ
UniProt O75818: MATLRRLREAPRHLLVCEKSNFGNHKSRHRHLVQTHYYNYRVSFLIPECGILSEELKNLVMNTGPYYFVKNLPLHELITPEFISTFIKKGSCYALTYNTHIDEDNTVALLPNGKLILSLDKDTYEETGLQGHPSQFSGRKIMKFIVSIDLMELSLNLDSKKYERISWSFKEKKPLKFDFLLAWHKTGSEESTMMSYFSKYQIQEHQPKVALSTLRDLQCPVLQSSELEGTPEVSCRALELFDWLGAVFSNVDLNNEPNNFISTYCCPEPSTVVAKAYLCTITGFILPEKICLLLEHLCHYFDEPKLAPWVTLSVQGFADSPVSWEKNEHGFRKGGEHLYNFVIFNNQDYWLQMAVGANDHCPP
UniProt Q96BH1: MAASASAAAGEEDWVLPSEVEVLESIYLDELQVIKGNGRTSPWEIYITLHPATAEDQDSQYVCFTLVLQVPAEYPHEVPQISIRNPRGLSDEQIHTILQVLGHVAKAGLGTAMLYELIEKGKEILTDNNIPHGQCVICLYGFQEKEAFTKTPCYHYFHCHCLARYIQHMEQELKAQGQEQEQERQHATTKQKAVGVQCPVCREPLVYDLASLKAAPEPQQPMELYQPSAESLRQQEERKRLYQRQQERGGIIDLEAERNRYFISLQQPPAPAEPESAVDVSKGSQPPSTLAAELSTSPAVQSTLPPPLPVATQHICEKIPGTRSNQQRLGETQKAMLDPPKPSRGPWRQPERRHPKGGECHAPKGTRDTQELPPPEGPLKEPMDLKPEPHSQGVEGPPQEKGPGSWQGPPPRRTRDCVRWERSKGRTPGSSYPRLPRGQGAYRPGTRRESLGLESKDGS
UniProt Q9BWH6: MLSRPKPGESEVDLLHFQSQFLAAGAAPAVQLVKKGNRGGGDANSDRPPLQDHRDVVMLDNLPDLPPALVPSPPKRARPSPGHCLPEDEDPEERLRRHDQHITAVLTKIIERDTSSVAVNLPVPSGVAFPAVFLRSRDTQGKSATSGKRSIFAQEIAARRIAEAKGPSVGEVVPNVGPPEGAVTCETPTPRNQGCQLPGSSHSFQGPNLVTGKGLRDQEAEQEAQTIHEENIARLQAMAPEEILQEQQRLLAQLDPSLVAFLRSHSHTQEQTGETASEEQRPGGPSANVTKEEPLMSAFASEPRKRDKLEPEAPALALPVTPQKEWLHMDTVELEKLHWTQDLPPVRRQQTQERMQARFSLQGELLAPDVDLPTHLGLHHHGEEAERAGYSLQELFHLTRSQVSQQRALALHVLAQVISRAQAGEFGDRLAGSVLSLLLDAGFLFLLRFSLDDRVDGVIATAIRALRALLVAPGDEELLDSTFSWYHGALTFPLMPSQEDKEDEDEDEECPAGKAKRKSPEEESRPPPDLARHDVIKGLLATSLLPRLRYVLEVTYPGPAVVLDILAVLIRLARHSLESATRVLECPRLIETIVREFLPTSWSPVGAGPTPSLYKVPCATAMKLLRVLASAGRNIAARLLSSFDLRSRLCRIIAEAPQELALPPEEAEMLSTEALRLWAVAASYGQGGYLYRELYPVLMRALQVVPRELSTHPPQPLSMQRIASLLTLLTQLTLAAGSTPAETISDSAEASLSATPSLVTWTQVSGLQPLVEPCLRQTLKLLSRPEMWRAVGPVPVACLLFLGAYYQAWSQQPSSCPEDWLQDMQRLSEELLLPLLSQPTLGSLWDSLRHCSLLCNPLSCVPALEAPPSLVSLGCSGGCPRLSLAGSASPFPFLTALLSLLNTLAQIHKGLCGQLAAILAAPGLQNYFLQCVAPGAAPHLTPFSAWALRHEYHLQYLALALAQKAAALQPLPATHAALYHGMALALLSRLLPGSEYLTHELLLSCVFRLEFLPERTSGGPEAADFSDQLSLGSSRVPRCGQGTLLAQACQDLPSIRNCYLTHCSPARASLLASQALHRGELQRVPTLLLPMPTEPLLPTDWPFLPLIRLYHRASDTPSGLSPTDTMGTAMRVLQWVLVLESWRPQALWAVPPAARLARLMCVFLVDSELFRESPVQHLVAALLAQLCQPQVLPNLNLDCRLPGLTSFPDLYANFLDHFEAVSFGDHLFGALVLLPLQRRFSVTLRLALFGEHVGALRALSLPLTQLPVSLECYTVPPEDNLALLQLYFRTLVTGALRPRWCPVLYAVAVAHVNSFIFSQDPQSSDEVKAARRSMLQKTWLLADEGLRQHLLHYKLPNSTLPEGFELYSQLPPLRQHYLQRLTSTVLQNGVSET
UniProt P13489: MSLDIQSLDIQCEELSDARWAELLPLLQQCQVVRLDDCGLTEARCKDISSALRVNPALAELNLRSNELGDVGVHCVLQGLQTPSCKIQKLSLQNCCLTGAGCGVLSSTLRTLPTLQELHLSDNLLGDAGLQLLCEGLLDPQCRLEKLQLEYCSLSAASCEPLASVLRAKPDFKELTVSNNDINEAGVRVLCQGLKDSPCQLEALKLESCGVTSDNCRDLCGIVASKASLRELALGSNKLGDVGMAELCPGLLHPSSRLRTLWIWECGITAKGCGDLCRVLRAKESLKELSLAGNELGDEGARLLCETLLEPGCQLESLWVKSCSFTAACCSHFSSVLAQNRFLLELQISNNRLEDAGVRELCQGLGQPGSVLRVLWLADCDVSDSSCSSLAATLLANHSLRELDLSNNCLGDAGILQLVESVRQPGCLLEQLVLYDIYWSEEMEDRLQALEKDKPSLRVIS
UniProt P23921: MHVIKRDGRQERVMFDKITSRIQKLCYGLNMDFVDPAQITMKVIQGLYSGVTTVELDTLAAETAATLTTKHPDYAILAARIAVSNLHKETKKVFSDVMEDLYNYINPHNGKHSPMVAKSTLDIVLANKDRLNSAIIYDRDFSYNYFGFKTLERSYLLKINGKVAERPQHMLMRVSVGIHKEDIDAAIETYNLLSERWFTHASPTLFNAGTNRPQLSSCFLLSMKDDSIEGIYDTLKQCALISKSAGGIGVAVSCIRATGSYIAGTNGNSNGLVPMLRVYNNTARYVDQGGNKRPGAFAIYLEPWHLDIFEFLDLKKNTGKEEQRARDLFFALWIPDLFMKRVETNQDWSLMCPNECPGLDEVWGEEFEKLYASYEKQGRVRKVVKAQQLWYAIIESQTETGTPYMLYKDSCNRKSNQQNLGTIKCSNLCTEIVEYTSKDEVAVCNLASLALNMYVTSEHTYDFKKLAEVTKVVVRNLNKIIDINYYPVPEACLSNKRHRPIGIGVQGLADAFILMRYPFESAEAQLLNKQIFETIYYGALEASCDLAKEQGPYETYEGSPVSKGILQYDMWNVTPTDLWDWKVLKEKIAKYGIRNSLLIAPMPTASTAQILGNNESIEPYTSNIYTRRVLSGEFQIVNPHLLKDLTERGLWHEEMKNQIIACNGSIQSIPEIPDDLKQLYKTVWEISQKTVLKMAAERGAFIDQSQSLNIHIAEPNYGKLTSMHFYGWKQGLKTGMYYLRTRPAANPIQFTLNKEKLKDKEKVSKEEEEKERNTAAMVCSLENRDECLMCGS
UniProt P78345: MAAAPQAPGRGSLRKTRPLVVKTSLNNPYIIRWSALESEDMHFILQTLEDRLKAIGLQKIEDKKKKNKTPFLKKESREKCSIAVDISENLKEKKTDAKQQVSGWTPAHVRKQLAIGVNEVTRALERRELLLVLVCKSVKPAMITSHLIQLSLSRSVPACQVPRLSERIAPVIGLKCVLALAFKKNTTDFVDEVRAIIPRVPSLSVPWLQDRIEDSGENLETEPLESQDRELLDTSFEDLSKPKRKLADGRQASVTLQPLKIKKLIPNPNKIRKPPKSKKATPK
UniProt P49247: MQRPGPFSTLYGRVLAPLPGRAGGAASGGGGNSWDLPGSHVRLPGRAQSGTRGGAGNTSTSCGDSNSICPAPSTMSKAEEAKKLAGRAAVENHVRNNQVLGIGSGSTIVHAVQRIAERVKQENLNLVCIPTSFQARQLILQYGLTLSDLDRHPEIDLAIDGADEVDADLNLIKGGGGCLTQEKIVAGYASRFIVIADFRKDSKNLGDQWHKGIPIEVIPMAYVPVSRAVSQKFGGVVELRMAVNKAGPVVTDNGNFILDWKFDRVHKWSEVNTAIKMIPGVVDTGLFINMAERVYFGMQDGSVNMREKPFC
UniProt P05386, whole entry, looked up: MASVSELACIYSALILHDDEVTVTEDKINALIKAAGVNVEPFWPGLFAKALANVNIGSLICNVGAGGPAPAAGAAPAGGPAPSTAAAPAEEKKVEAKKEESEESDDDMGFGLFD
UniProt P78346: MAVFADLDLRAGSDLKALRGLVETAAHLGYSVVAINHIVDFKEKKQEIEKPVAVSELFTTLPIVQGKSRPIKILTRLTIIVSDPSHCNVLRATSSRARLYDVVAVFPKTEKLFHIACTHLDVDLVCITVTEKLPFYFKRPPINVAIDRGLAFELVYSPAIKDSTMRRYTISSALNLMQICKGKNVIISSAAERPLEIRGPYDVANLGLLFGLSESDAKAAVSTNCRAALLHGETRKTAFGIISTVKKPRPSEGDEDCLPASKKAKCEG
UniProt Q7L523, whole entry, looked up: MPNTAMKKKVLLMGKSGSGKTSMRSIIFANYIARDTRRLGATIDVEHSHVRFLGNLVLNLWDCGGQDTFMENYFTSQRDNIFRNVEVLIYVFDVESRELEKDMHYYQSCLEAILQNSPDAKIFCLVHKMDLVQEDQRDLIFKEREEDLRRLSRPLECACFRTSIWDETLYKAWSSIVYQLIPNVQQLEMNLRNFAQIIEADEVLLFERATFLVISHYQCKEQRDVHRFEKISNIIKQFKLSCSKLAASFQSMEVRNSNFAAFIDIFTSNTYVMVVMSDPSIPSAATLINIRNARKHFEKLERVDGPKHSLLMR

Columns and labels:
Assay in all cases: log2 fold change, soluble protein after heating vs DMSO (PISA); higher = thermal stabilisation; K562 cells, 10 uM, 30 min; active = over 0.2 and 3.5 SD of the protein, either way, in both replicates (recomputed)
saracatinib = compound: CN1CCN(CCOc2cc(OC3CCOCC3)c3c(Nc4c(Cl)ccc5c4OCO5)ncnc3c2)CC1 [saracatinib]
In short: (§1)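 Soluble protein was defined as the supernatant after 21,000xg for 90 min. It came from K562 cells at 2×10^6 cells/mL given 10 μM compound for 30 min, heated in aliquots for 3 min across 48°C-58°C, pooled, and extracted in PBS with 0.5% NP-40 at 4°C, and was quantified by TMTpro 16plex LC-MS/MS with equalised channel sums. Thermal stability against control samples, from duplicates, is reported as log2 fold change.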

sotrastaurin = compound: CN1CCN(c2nc(C3=C(c4c[nH]c5ccccc45)C(=O)NC3=O)c3ccccc3n2)CC1 [sotrastaurin]
In short: as §1

alvocidib = compound: CN1CC[C@H](c2c(O)cc(O)c3c(=O)cc(-c4ccccc4Cl)oc23)[C@H](O)C1 [alvocidib]
In short: as §1

Tubastatin A = compound: CN1CCc2c(c3ccccc3n2Cc2ccc(C(=O)NO)cc2)C1 [Tubastatin A]
In short: as §1

[1] = compound: CNC(=O)C1=CC=CC=C1NC2=NC(=NC=C2Cl)NC3=C(C=C(C=C3)N4CCOCC4)OC
In short: as §1

defactinib = compound: CNC(=O)c1ccc(Nc2ncc(C(F)(F)F)c(NCc3nccnc3N(C)S(C)(=O)=O)n2)cc1 [defactinib]
In short: as §1

rucaparib = compound: CNCc1ccc(-c2[nH]c3cc(F)cc4c3c2CCNC4=O)cc1 [rucaparib]
In short: as §1

[2] = compound: CNc1nc(-c2ccc3c(N)n[nH]c3c2)cc(N2C[C@@H](C(=O)NC3CCCCC3)CC[C@H]2C)n1
In short: as §1

encorafenib = compound: COC(=O)N[C@@H](C)CNc1nccc(-c2cn(C(C)C)nc2-c2cc(Cl)cc(NS(C)(=O)=O)c2F)n1 [encorafenib]
In short: as §1

[3] = compound: COC(=O)[C@H](CCSC)NC(=O)C1=C(C=C(C=C1)NC[C@H](CS)N)C2=CC=CC=C2
In short: as §1

Measured: log2 fold change

RPLP0 (UniProt P05388)
inactive: saracatinib -0.158 | sotrastaurin -0.035 | alvocidib 0.425 | Tubastatin A 0.22 | [1] 0.014 | defactinib 0.556 | rucaparib 0.424 | [2] 0.223 | encorafenib 0.192 | [3] 0.008

RNMT isoform 2 (UniProt O43148)
inactive: saracatinib -0.029 | sotrastaurin 0.049 | alvocidib 0.122 | Tubastatin A 0.007 | [1] 0.001 | defactinib 0.03 | rucaparib 0.076 | [2] -0.027 | encorafenib 0.013 | [3] 0.011

RPL36AL (UniProt Q969Q0)
inactive: saracatinib -0.091 | sotrastaurin -0.003 | alvocidib 0.323 | Tubastatin A 0.064 | [1] 0.068 | defactinib 0.378 | rucaparib 0.479 | [2] 0.127 | encorafenib 0.052 | [3] 0.061

RPL7 (UniProt P18124)
inactive: saracatinib -0.195 | sotrastaurin -0.042 | alvocidib 0.472 | Tubastatin A 0.276 | [1] 0.063 | defactinib 0.679 | rucaparib 0.506 | [2] 0.246 | encorafenib 0.252 | [3] -0.013

2 entries picked at random from those above, as already listed:
RPL7 (UniProt P18124)
inactive: saracatinib -0.195 | sotrastaurin -0.042 | alvocidib 0.472 | Tubastatin A 0.276 | [1] 0.063 | defactinib 0.679 | rucaparib 0.506 | [2] 0.246 | encorafenib 0.252 | [3] -0.013

RPLP0 (UniProt P05388)
inactive: saracatinib -0.158 | sotrastaurin -0.035 | alvocidib 0.425 | Tubastatin A 0.22 | [1] 0.014 | defactinib 0.556 | rucaparib 0.424 | [2] 0.223 | encorafenib 0.192 | [3] 0.008

Further entries follow.

RPL27 (UniProt P61353)
inactive: saracatinib -0.119 | sotrastaurin 0.063 | alvocidib 0.392 | Tubastatin A 0.198 | [1] 0.017 | defactinib 0.508 | rucaparib 0.333 | [2] 0.179 | encorafenib 0.205 | [3] -0.09

RPL12 (UniProt P30050)
inactive: saracatinib -0.117 | sotrastaurin -0.005 | alvocidib 0.401 | Tubastatin A 0.193 | [1] -0.03 | defactinib 0.522 | rucaparib 0.429 | [2] 0.202 | encorafenib 0.205 | [3] 0.075

RPL10 (UniProt P27635)
inactive: saracatinib -0.125 | sotrastaurin -0.018 | alvocidib 0.328 | Tubastatin A 0.112 | [1] 0.078 | defactinib 0.427 | rucaparib 0.389 | [2] 0.213 | encorafenib 0.191 | [3] 0.001

RPS27 (UniProt P42677)
inactive: saracatinib -0.066 | sotrastaurin -0.038 | alvocidib 0.061 | Tubastatin A 0.132 | [1] 0.081 | defactinib 0.201 | rucaparib 0.24 | [2] 0.072 | encorafenib 0.039 | [3] -0.023

RPS26 (UniProt P62854)
inactive: saracatinib -0.072 | sotrastaurin -0.027 | alvocidib 0.35 | Tubastatin A 0.098 | [1] 0.06 | defactinib 0.397 | rucaparib 0.327 | [2] 0.105 | encorafenib 0.208 | [3] 0.012

RPP40 (UniProt O75818)
inactive: saracatinib 0.045 | sotrastaurin 0.068 | alvocidib 0.042 | Tubastatin A 0 | [1] -0.007 | defactinib 0.025 | rucaparib 0.023 | [2] -0.023 | encorafenib 0.01 | [3] 0.067

RPL19 (UniProt P84098)
inactive: saracatinib -0.182 | sotrastaurin -0.013 | alvocidib 0.295 | Tubastatin A 0.132 | [1] 0.042 | defactinib 0.368 | rucaparib 0.453 | [2] 0.123 | encorafenib 0.15 | [3] -0.058

RPL27A (UniProt P46776)
inactive: saracatinib -0.119 | sotrastaurin -0.018 | alvocidib 0.399 | Tubastatin A 0.158 | [1] 0.055 | defactinib 0.45 | rucaparib 0.42 | [2] 0.134 | encorafenib 0.157 | [3] 0.096

RPS24 isoform 4 (UniProt P62847)
inactive: saracatinib -0.065 | sotrastaurin -0.011 | alvocidib 0.218 | Tubastatin A 0.12 | [1] 0.043 | defactinib 0.275 | rucaparib 0.172 | [2] 0.121 | encorafenib 0.082 | [3] 0.01

RPL13A (UniProt P40429)
inactive: saracatinib -0.176 | sotrastaurin -0.123 | alvocidib 0.501 | Tubastatin A 0.222 | [1] 0.054 | defactinib 0.662 | rucaparib 0.468 | [2] 0.259 | encorafenib 0.254 | [3] -0.059

RPL37 (UniProt P61927)
inactive: saracatinib 0.001 | sotrastaurin -0.012 | alvocidib 0.309 | Tubastatin A 0.116 | [1] 0.003 | defactinib 0.424 | rucaparib 0.235 | [2] 0.186 | encorafenib 0.141 | [3] 0.045

RPS15A (UniProt P62244)
inactive: saracatinib -0.099 | sotrastaurin -0.021 | alvocidib 0.297 | Tubastatin A 0.155 | [1] 0.074 | defactinib 0.31 | rucaparib 0.218 | [2] 0.144 | encorafenib 0.12 | [3] -0.03

RPL23A (UniProt P62750)
inactive: saracatinib -0.117 | sotrastaurin -0.009 | alvocidib 0.276 | Tubastatin A 0.094 | [1] 0.061 | defactinib 0.307 | rucaparib 0.315 | [2] 0.133 | encorafenib 0.094 | [3] -0.018

RPL39P5 (UniProt Q59GN2)
inactive: saracatinib -0.073 | sotrastaurin 0.087 | alvocidib 0.283 | Tubastatin A 0.138 | [1] 0.005 | defactinib 0.26 | rucaparib 0.325 | [2] 0.079 | encorafenib 0.106 | [3] 0.034

RNF25 (UniProt Q96BH1)
inactive: saracatinib -0.06 | sotrastaurin -0.028 | alvocidib -0.082 | Tubastatin A 0.101 | [1] -0.01 | defactinib -0.072 | rucaparib -0.019 | [2] -0.061 | encorafenib 0.019 | [3] -0.015

RPAP1 (UniProt Q9BWH6)
inactive: saracatinib 0.01 | sotrastaurin 0.028 | alvocidib -0.076 | Tubastatin A 0.029 | [1] -0.016 | defactinib -0.12 | rucaparib 0.007 | [2] 0.025 | encorafenib -0.013 | [3] -0.025

RNH1 (UniProt P13489)
inactive: saracatinib 0.013 | sotrastaurin -0.031 | alvocidib -0.081 | Tubastatin A -0.004 | [1] 0.233 | defactinib -0.038 | rucaparib -0.059 | [2] -0.032 | encorafenib -0.018 | [3] 0.015

RPS8 (UniProt P62241)
inactive: saracatinib -0.079 | sotrastaurin 0 | alvocidib 0.263 | Tubastatin A 0.138 | [1] 0.079 | defactinib 0.338 | rucaparib 0.279 | [2] 0.134 | encorafenib 0.106 | [3] 0.02

RRM1 (UniProt P23921)
inactive: saracatinib 0.041 | sotrastaurin 0.033 | alvocidib -0.012 | Tubastatin A -0.035 | [1] -0.069 | defactinib -0.013 | rucaparib -0.013 | [2] -0.02 | encorafenib -0.007 | [3] -0.006

RPL26 (UniProt P61254)
inactive: saracatinib -0.089 | sotrastaurin -0.3 | alvocidib 0.258 | Tubastatin A 0.136 | [1] 0.016 | defactinib 0.13 | rucaparib 0.487 | [2] 0.088 | encorafenib 0.045 | [3] -0.192

RPP38 (UniProt P78345)
inactive: saracatinib 0.027 | sotrastaurin -0.016 | alvocidib 0.028 | Tubastatin A 0.045 | [1] 0.02 | defactinib -0.008 | rucaparib -0.003 | [2] 0.008 | encorafenib 0.03 | [3] 0.008

RPIA (UniProt P49247)
inactive: saracatinib 0.004 | sotrastaurin 0.004 | alvocidib -0.002 | Tubastatin A -0.022 | [1] -0.01 | defactinib -0.002 | rucaparib -0.017 | [2] -0.019 | encorafenib -0.015 | [3] -0.014

RPL36 (UniProt Q9Y3U8)
inactive: saracatinib -0.123 | sotrastaurin -0.044 | alvocidib 0.432 | Tubastatin A 0.254 | [1] -0.009 | defactinib 0.602 | rucaparib 0.431 | [2] 0.23 | encorafenib 0.184 | [3] 0.033

RPLP1 (UniProt P05386)
inactive: saracatinib -0.133 | sotrastaurin 0.13 | alvocidib 0.372 | Tubastatin A 0.235 | [1] 0.092 | defactinib 0.293 | rucaparib 0.398 | [2] 0.125 | encorafenib 0.147 | [3] 0.159

RPP30 isoform 2 (UniProt P78346)
inactive: saracatinib -0.015 | sotrastaurin -0.066 | alvocidib 0.003 | Tubastatin A -0.004 | [1] -0.049 | defactinib 0.052 | rucaparib 0.131 | [2] -0.056 | encorafenib -0.017 | [3] 0.088

RRAGA (UniProt Q7L523)
inactive: saracatinib 0.118 | sotrastaurin -0.019 | alvocidib -0.145 | Tubastatin A -0.027 | [1] -0.02 | defactinib -0.068 | rucaparib 0.006 | [2] 0.01 | encorafenib 0.002 | [3] 0.055
